Test results taken from PMC4279394.
These are yes or no findings as the source states them, for the method shown. Binding seen in cells or lysates may run through a third protein. Binding can be weak; no strength is given.

Chains of the proteins cited; added tags and fusions are not shown. Lines headed by an entry give the natural chain unless they say otherwise; changes in a name come on top.
UniProt P56693: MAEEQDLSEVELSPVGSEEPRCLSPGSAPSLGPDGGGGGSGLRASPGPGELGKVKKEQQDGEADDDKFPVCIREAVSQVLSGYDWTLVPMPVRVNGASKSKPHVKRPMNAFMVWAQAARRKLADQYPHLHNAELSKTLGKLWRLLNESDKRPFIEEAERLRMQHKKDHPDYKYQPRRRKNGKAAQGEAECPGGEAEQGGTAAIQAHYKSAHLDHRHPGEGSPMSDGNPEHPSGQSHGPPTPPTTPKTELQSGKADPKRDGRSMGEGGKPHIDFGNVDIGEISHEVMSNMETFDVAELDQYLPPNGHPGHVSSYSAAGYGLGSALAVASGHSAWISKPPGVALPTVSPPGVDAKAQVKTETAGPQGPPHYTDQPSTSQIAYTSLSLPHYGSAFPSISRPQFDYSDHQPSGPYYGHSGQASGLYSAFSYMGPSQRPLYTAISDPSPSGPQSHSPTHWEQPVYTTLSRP
UniProt P35222: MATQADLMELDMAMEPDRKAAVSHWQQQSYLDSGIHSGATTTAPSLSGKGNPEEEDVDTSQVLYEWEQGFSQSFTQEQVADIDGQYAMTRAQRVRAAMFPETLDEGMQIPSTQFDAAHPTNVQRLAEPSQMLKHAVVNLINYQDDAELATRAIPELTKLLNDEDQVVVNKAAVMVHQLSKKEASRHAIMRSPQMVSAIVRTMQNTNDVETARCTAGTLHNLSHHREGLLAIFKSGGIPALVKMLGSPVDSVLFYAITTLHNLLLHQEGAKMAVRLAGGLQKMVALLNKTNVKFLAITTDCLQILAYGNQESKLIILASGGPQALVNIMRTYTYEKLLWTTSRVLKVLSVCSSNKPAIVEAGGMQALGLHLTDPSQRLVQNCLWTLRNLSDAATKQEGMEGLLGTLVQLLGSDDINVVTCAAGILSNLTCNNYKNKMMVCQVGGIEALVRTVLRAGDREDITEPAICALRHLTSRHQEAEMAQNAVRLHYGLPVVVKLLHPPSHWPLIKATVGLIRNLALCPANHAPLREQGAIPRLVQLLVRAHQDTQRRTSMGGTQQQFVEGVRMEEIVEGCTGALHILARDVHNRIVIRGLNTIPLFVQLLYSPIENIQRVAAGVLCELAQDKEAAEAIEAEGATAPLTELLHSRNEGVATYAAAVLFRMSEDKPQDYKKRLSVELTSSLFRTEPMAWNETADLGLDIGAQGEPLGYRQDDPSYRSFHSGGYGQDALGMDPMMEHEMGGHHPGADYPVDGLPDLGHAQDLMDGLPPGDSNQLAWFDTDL

Target: V5-tagged SOX10-482ins6 mutant (human) (UniProt P56693)
Assay: co-IP; whole-cell extracts of cells expressing V5-SOX10 or its mutants (3G, DB, 482ins6); endogenous β-catenin; cell line (HCT116 or 293T) and precipitating antibody not stated for this panel (Figure 6B)

binding: binds
Substance: endogenous β-catenin (from UniProt P35222 1-781)
